Data as given in PubChem BioAssay AID602196 (INSERM, 2012)
Screen: 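Modifiers of cisplatin sensitivity in A549 cells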. Cell system: human A549 lung cancer cells. Reagents: siRNA pair against human genes. Timing: 48 h transfection before cisplatin; time from cisplatin to read-out not stated. Challenge: cisplatin at a dose killing half of control-siRNA cells; exact dose and duration not given. Detection: 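Shift in cisplatin death relative to control siRNA, from -50 (all cells die) to +50 (no cells die); siRNAs harmful on their own scored 0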. Scale: two-siRNA summed score (-2 to +2): higher = both siRNAs protect from cisplatin killing; -2 means both sensitise; mean protection from cisplatin (shift in death): higher = protection from cisplatin killing. Call rule: 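siRNAs harmful alone (LDH or WST-1) get 0; others get +1 for less and -1 for more cisplatin killing; genes are active when the two siRNAs give the same sign, summing to ±2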. Calls: active = both siRNAs shift cisplatin killing the same way; inactive = no consistent shift, or siRNA harmful alone.
This is one part, drawn at random, of about 23,000 reagents. 455 of all reagents (2%) were called active. 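Active includes both protection and sensitisation; some change values fall well beyond the stated -50 to +50 range.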 Further read-outs or replicates are left out here. No sequences are given here. Not stated in the record: the amount of reagent.

Against RPAP3, the values are two-siRNA summed score (-2 to +2) = 0; mean protection from cisplatin (shift in death) (%) = 2.7; inactive.
FEM1B scored two-siRNA summed score (-2 to +2) = 0; mean protection from cisplatin (shift in death) (%) = 1.9; inactive.
EREG scored two-siRNA summed score (-2 to +2) = 0; mean protection from cisplatin (shift in death) (%) = 2.1; inactive.
Against LRP1, the values are two-siRNA summed score (-2 to +2) = 0; mean protection from cisplatin (shift in death) (%) = -5; inactive.
LOC440995 showed two-siRNA summed score (-2 to +2) = 0; mean protection from cisplatin (shift in death) (%) = 44.3; inactive.
For MNDA, the values are two-siRNA summed score (-2 to +2) = 0; mean protection from cisplatin (shift in death) (%) = 3.3; inactive.
HNRNPH3 gave two-siRNA summed score (-2 to +2) = 1; mean protection from cisplatin (shift in death) (%) = 10.6; inactive.
RNF43 scored two-siRNA summed score (-2 to +2) = 0; mean protection from cisplatin (shift in death) (%) = 4.6; inactive.
TMEM171 showed two-siRNA summed score (-2 to +2) = -1; mean protection from cisplatin (shift in death) (%) = -6.9; inactive.
Depletion of ERFL gave: two-siRNA summed score (-2 to +2) = 2; mean protection from cisplatin (shift in death) (%) = 16.8; active.
LOC440069 showed two-siRNA summed score (-2 to +2) = 0; mean protection from cisplatin (shift in death) (%) = -2.6; inactive.
After knock-down of LOC388166, the record shows two-siRNA summed score (-2 to +2) = 1; mean protection from cisplatin (shift in death) (%) = 7; inactive.
CPNE9 scored two-siRNA summed score (-2 to +2) = 0; mean protection from cisplatin (shift in death) (%) = 2; inactive.
Silencing of TSPO resulted in: two-siRNA summed score (-2 to +2) = -2; mean protection from cisplatin (shift in death) (%) = -18.2; active.
After knock-down of HIKESHI the results were two-siRNA summed score (-2 to +2) = 0; mean protection from cisplatin (shift in death) (%) = 3.3; inactive.
Against MAPKBP1, the values are two-siRNA summed score (-2 to +2) = 1; mean protection from cisplatin (shift in death) (%) = 3.8; inactive.
Silencing of RPS4Y2 came out at: two-siRNA summed score (-2 to +2) = 0; mean protection from cisplatin (shift in death) (%) = 8.6; inactive.
Knock-down of ATP1B2 came out at: two-siRNA summed score (-2 to +2) = 0; mean protection from cisplatin (shift in death) (%) = -0.9; inactive.
PDP2 scored two-siRNA summed score (-2 to +2) = 0; mean protection from cisplatin (shift in death) (%) = 5.3; inactive.

Quoted from the listing for reference:
MAPKBP1: two-siRNA summed score (-2 to +2) = 1; mean protection from cisplatin (shift in death) (%) = 3.8; outcome = inactive
RPS4Y2: two-siRNA summed score (-2 to +2) = 0; mean protection from cisplatin (shift in death) (%) = 8.6; outcome = inactive
ATP1B2: two-siRNA summed score (-2 to +2) = 0; mean protection from cisplatin (shift in death) (%) = -0.9; outcome = inactive
PDP2: two-siRNA summed score (-2 to +2) = 0; mean protection from cisplatin (shift in death) (%) = 5.3; outcome = inactive

Additional reagents:
LOC389039 showed two-siRNA summed score (-2 to +2) = 0; mean protection from cisplatin (shift in death) (%) = 22.2; inactive.
Knock-down of PNISR gave: two-siRNA summed score (-2 to +2) = 0; mean protection from cisplatin (shift in death) (%) = 6.7; inactive.
For ADAMTS5, the entry reads two-siRNA summed score (-2 to +2) = 0; mean protection from cisplatin (shift in death) (%) = -10.1; inactive.
TSPAN31 scored two-siRNA summed score (-2 to +2) = 0; mean protection from cisplatin (shift in death) (%) = 2.4; inactive.
Knock-down of SPRTN came out at: two-siRNA summed score (-2 to +2) = 1; mean protection from cisplatin (shift in death) (%) = 8.5; inactive.
With knock-down of NCAPD2, the screen gave two-siRNA summed score (-2 to +2) = 0; mean protection from cisplatin (shift in death) (%) = 2.4; inactive.
Against GAPDH, the values are two-siRNA summed score (-2 to +2) = 0; mean protection from cisplatin (shift in death) (%) = -6.1; inactive.
Against EEF1AKMT1, the values are two-siRNA summed score (-2 to +2) = 0; mean protection from cisplatin (shift in death) (%) = 9.8; inactive.
For MSX1, the entry reads two-siRNA summed score (-2 to +2) = 0; mean protection from cisplatin (shift in death) (%) = -12.5; inactive.
GABRE showed two-siRNA summed score (-2 to +2) = 0; mean protection from cisplatin (shift in death) (%) = 10.6; inactive.
For LOC139516, the values are two-siRNA summed score (-2 to +2) = 1; mean protection from cisplatin (shift in death) (%) = 26.5; inactive.
Silencing of SLC19A1 gave: two-siRNA summed score (-2 to +2) = 0; mean protection from cisplatin (shift in death) (%) = 3; inactive.
